Test results as given in PubChem BioAssay AID2685 (National Center for Advancing Translational Sciences (NCATS), 2010).
The other results are listed elsewhere or left out. Shown are side measurements of this screen, not its main read-out; they come without a call. Compounds called inactive in the main read-out are mostly missing here. The note in brackets gives the kind of curve behind each potency; many fits are weak.

Assay: qHTS Assay for Lipid Storage Modulators in Drosophila S3 Cells;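 as to cell number change: cells counted by Cell Tracker Red CMTPX staining in the red channel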
Details: BODIPY lipid droplet fluorescence, 18-24 h; for cell number change: measured here: cell count max response, cells fed with added oleic acid
Procedure, shortened: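 Drosophila S3 cells got compounds at several concentrations plus oleic acid (400 uM solution). Laser-scanning cytometry with 488 nm excitation read lipid droplets at 500-530 nm and cells at 575-640 nm. Percent activity was relative to 20 uM Triacsin C.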

[1] = measured here: lipid fluorescence (Fed channel) AC50, cells fed with added oleic acid
[2] = measured here: cell number channel AC50, cells fed with added oleic acid

Row | SMILES | cell number change [%] | AC50 [1] | AC50 [2]
1 | COc1ccc(N2CCN(C(=O)c3cccc(S(=O)(=O)N4CCOCC4)c3)CC2)cc1 | -7.9 | 0.13 µM [falling, full curve, poor fit] | 
2 | CC1CCN(CC(=O)Nc2ccc(S(=O)(=O)N3CCCCC3)cc2)CC1 | -3.17 |  | 
3 | CCOC(=O)[C@H]1[C@H]2COc3ccc(C)cc3[C@@H]2N2C(=O)CN(Cc3ccco3)C(=O)[C@@]12C | -33.8 | 29.1 µM [rising, single point] | 29.1 µM [falling, single point]
4 | CCCn1c(C)cc(C(=O)COC(=O)CN=C2NS(=O)(=O)c3ccccc32)c1C |  | 0.146 µM [falling, full curve, poor fit] | 
5 | O=C(Nc1nc2c(F)cc(F)cc2s1)c1ccccn1 | -7.08 | 6.51 µM [rising, single point] | 
6 | COc1ccc(NC(=O)CN2CCN(CC#N)CC2)cc1 | -11.1 | 6.51 µM [rising, single point] | 
7 | Cc1ccc2nc3c(c(C(=O)OC4CCOC4=O)c2c1)CCCC3 (stereo not given) | 95.7 | 29.1 µM [rising, single point] | 20.6 µM [rising, partial curve]
8 | COC(=O)[C@@]12CCCCN1[C@H](c1ccc(-c3ccccc3)cc1)[C@H]1C(=O)N(C)C(=O)[C@H]12 | -37.1 | 29.1 µM [falling, single point] | 16.4 µM [falling, single point]
9 | N#Cc1c(-c2ccccc2)nc(SCC(=O)Nc2ccccc2)[nH]c1=O | 13.1 | 23.1 µM [rising, single point] | 
10 | O=C(O)CSC1=NC(=Nc2ccc(Cl)cc2)C2(CCCCC2)N1c1cccc(C(=O)O)c1 | -55.2 | 20.6 µM [falling, single point] | 29.1 µM [falling, single point]
11 | CC(NC(=O)c1ccc2c(=O)n3c(nc2c1)CCC3)c1ccc(S(N)(=O)=O)cc1 (stereo not given) | -30.3 |  | 0.103 µM [falling, full curve, poor fit]
12 | CCOc1ccc(C(=O)NNC2CC(=O)N(Cc3ccc(Cl)cc3)C2=O)cc1OC (stereo not given) | 5.08 | 4.11 µM [rising, single point] | 
13 | O=C(O)CCCCCNC(=O)C(=O)C1C(=O)Nc2ccccc21 (stereo not given) | 7.18 | 5.17 µM [falling, single point] | 
14 | CC(=O)Nc1ccc(NC(=O)C/C(C)=N/NC(=O)c2cccc3ccccc23)cc1 | 3.48 |  | 
15 | COc1ccc(CCn2c(-c3cc([N+](=O)[O-])cc([N+](=O)[O-])c3)nc3nc4ccccc4nc32)cc1 | 18.2 |  | 
16 | Cc1c(NS(=O)(=O)c2cc(C(=O)OCC(=O)N3CCC(C)CC3)ccc2Cl)c(=O)n(-c2ccccc2)n1C | 22.6 |  | 0.291 µM [rising, full curve, poor fit]
17 | COc1ccc(C2=NNC(c3cccnc3)=Nc3ccc(OC)cc32)cc1 |  | 0.58 µM [falling, single point] | 
18 | CCOC(=O)C1CCN(Cc2ccc(O)c3ncccc23)CC1 | -52 | 16.4 µM [falling, partial curve] | 16.4 µM [falling, partial curve]
19 | Cc1cccc(NC(=O)c2nc[nH]c2C(=O)NCCCCCNC(=O)OC(C)(C)C)c1 | -37.4 | 29.1 µM [falling, single point] | 25.9 µM [falling, single point]

Shown as tab-separated lines: entries from further up
Row	SMILES	cell number change [%]	AC50 [1]	AC50 [2]
12	CCOc1ccc(C(=O)NNC2CC(=O)N(Cc3ccc(Cl)cc3)C2=O)cc1OC (stereo not given)	5.08	4.11 µM [rising, single point]	
13	O=C(O)CCCCCNC(=O)C(=O)C1C(=O)Nc2ccccc21 (stereo not given)	7.18	5.17 µM [falling, single point]	
14	CC(=O)Nc1ccc(NC(=O)C/C(C)=N/NC(=O)c2cccc3ccccc23)cc1	3.48		

(list continues)

Row | SMILES | cell number change [%] | AC50 [1] | AC50 [2]
20 | Cc1ccc(CNC(=O)C2CCN(S(=O)(=O)c3ccc(Br)s3)CC2)cc1 | 33.3 |  | 29.1 µM [rising, single point]
21 | COc1ccc(S(=O)(=O)Nc2c(C)nc3nc[nH]n3c2=O)cc1 | -18.6 | 6.51 µM [falling, single point] | 6.51 µM [falling, single point]
22 | CCC(c1nnnn1CC1CCCO1)N(CCCO)Cc1cc2cccc(C)c2[nH]c1=O (stereo not given) | 3.87 |  | 
23 | Cc1ccc(C)c2c1sc(=NC(=O)CN1C(=O)CCC1=O)n2C | 7.74 | 6.51 µM [rising, single point] | 
24 | CN(C)c1ccc(C(=O)Nc2cccc(S(=O)(=O)NC3=NCCCCC3)c2)cc1 | 24.8 |  | 
25 | Cc1ccnc(NC(=O)c2ccc(C(=O)c3ccccc3)cc2)c1 | -54.9 | 23.1 µM [falling, partial curve] | 23.1 µM [falling, partial curve, poor fit]
26 | O=C(O)C1C2C=CC(O2)C1C(=O)NCCCn1ccnc1 (stereo not given) | -9.49 | 0.00461 µM [falling, full curve, poor fit] | 
27 | COCc1cc(=O)[nH]c(-c2ccccc2)n1 | -32.8 | 3.66 µM [falling, partial curve, poor fit] | 0.231 µM [falling, full curve]
28 | CC(=O)Nc1c(O)nc(SCc2ccc(Cl)cc2)[nH]c1=O | 24.7 | 0.231 µM [rising, full curve] | 
29 | CN(C)c1nc(NC(C)(C)C)nc(NC(C)(C)C)n1 | -17.3 | 6.51 µM [rising, single point] | 
30 | O=C(CCCOc1ccccc1)Nc1cccc(S(=O)(=O)N2CCCCCC2)c1 |  | 1.03 µM [falling, full curve] | 
31 | COc1ccc(-c2[nH]c3ccccc3c2SCCN)cc1 | 17.1 |  | 
32 | C=CCN1C(=O)C(Cc2ccc(F)cc2)S/C1=N/N=C/c1cccs1 (stereo not given) | 21.4 | 2.31 µM [rising, single point] | 1.84 µM [rising, full curve, poor fit]
33 | CC(CCc1ccccc1)NC(=O)CSc1ccccc1 (stereo not given) | -6.51 | 3.26 µM [rising, single point] | 
34 | Cc1cnc(C(=O)OCC(=O)Nc2cc(-c3cc(C)c(C)cc3C)nn2-c2ccccc2)cn1 | 38.2 | 3.66 µM [rising, single point] | 9.2 µM [rising, partial curve]
35 | Cn1nccc1C(=O)N1CCN(C23CC4CC(CC(C4)C2)C3)CC1 | 9.68 | 0.092 µM [rising, full curve, poor fit] | 6.51 µM [rising, single point]
36 | O=C(CN=C1NC(=O)C(c2ccccc2)(c2ccccc2)N1)NCc1ccc(F)cc1 | -3.99 | 0.00411 µM [falling, full curve, poor fit] | 
37 | CC(=O)c1c(C)[nH]c(C(=O)OCC(=O)NCc2ccc(Cl)cc2)c1C | 37.4 | 0.164 µM [rising, full curve, poor fit] | 0.146 µM [rising, full curve, poor fit]
38 | COCCCN(C(=O)Cc1ccc(Cl)c(Cl)c1)c1c(N)n(Cc2ccccc2)c(=O)[nH]c1=O | 2.21 | 2.06 µM [falling, partial curve] | 

Row | SMILES | cell number change [%] | AC50 [1] | AC50 [2]
39 | C/C(=N\NC(=O)c1nnn(-c2nonc2N)c1CN1CCOCC1)c1ccc(CC(C)C)cc1 | -6.11 | 16.4 µM [falling, single point] | 
40 | Cc1ccccc1Nc1nnc(SCC(=O)NC(=O)NCc2ccco2)s1 | 22.2 |  | 2.59 µM [rising, full curve, poor fit]
41 | O=C(CN1C(=O)CSc2ccc(S(=O)(=O)N3CCOCC3)cc21)NCc1cccnc1 |  | 0.13 µM [rising, full curve, poor fit] | 
42 | COC(=O)C1=C(CSc2nccn2C)NC(=O)NC1c1cc(C)ccc1C (stereo not given) | 73.6 |  | 2.31 µM [rising, full curve, poor fit]
43 | O=C(CC(=O)c1c(F)cccc1Cl)c1ccccc1O | -63.2 | 29.1 µM [falling, single point] | 29.1 µM [falling, single point]
44 | COc1ccc(NC(=O)CSc2nccn2Cc2ccccc2)c(OC)c1 | 31.6 |  | 5.17 µM [rising, full curve, poor fit]
45 | O=S(=O)(Nc1cccc(-c2cn3cccnc3n2)c1)c1ccc(Cl)cc1 | 11.8 | 29.1 µM [falling, single point] | 
46 | Cc1ccc(C(=O)Nc2ccccc2-c2ccccc2)o1 | 56.3 | 29.1 µM [rising, single point] | 0.82 µM [rising, full curve]
47 | COC(=O)C1=C(C)N(C)C(=O)NC1c1ccccc1 (stereo not given) |  | 6.51 µM [falling, single point] | 
48 | CN(CCNC(=O)c1cc2c(=O)n(C)c3ccccc3c2n1C)Cc1ccccc1 | 2.9 |  | 
49 | CCOC(=O)CNC(=O)COc1ccc(Cl)cc1Br | 13 |  | 
50 | COc1ccc(CNC(C)C2COc3ccccc3O2)c(OC)c1 (stereo not given) | -30.3 | 0.13 µM [falling, full curve, poor fit] | 20.6 µM [falling, single point]
51 | CCn1c(SCC(=O)Nc2ccc(OC)c(OC)c2)nnc1-c1cnccn1 | 26.6 |  | 
52 | COc1ccc2c(c1)c(N=NC(N)=S)c(O)n2CC(=O)c1ccccc1 | -37.1 | 14.6 µM [falling, single point] | 13 µM [falling, partial curve, poor fit]
53 | O=C(Oc1ccc(OC(=O)N2CCCCC2)cc1)c1ccccc1 | -36.9 | 20.6 µM [falling, single point] | 
54 | CCC(=O)Nc1ccc(C(=O)Cn2ncc(Cl)c(Cl)c2=O)cc1 | 0.793 | 6.51 µM [falling, single point] | 
55 | O=C1C=C(c2ccnc3cc(Cl)ccc23)C[C@@H](c2ccc3c(c2)OCO3)C1 | -15.3 |  | 0.146 µM [falling, single point]
56 | Cc1cc(C)c(NC(=O)CN(C)C(=O)CCC(=O)c2ccc(C)s2)c(C)c1 | 13 | 5.8 µM [rising, full curve] | 
